Among the data in patent US7612079B2, “2,6,9-substituted purine derivatives and their use in the treatment of proliferative disorders” (Cyclacel Limited, priority 2001, dated 2009) are IC50 values, retold here.

This assay deals with representative panel of human transformed tumour cell lines. Kind of assay: Average anti-proliferative activity in a panel of tumour cell lines. It is filed as cell-based. To be noted: read-out: average anti-proliferative IC50.

A word on the IC50: it is the concentration that inhibits the measured activity by half. Take `CC[C@H](CO)Nc1nc(NCc2ccccc2)c2ncn(C(C)C)c2n1` [Roscovitine]: the IC50 is roughly 10 µM.
